Experimental data reported in patent US20140227289A1, “COMPOUNDS AND METHODS FOR TREATING INSULIN RESISTANCE SYNDROME” (priority 2011, published 2014).
At least one compound was matched to its structure with a doubt left.

Key:
[1] = tested on: MCF-7 cells; test: Expression of endogenous Foxo1 targets in serum starved, PI3K inhibited MCF-7 cells; format: cell-based, human; conditions: serum starved + LY294002 50 μM for 4 hours vs control with serum
Method: To test the effects of PERK inhibition on endogenous Foxo1 targets, the cells were serum starved to remove growth factors and treated with the PI3K inhibitor LY294002 (50 μM) to further reduce AKT activity (“serum starved+LY”) for 4 hours. This treatment can be viewed as a model for extreme insulin resistance, in that it removes the capacity of the cell to respond insulin signaling by activating AKT. Control cells were grown in DMEM supplemented with 10% FBS (“control with serum”). The endogenous human FOXO targets are BIM gene (a pro-apoptotic member of the BCL-2 protein family), Cyclin G2 gene (encoding a cyclin that blocks cell cycle entry), insulin receptor substrate 2 gene (IRS-2; encoding a cytoplasmic signaling molecule that mediates effects of insulin), p27KIP1 gene (encoding a cell cycle regulatory protein), pyruvate dehydrogenase lipoamide kinase isozyme 4 gene (PDK4; encoding a protein that inhibits the pyruvate dehydrogenase complex), phosphoenolpyruvate carboxykinase 2 (PCK2; encoding a mitochondrial enzyme), p21 gene (encoding a cyclin-dependent kinase inhibitor) and insulin receptor gene (INSR). The rp132 gene (a ribosomal protein gene) and the mActin gene (encoding a muscle-specific type actin) are not FOXO targets and were used as controls. […]

[2] = tested on: HEPG2 liver cells; test: Foxo1 target gene expression in palmitate treated (insulin resistant) HEPG2 liver cells; format: cell-based, human; conditions: 0.75 mM of palmitate for 17 hours
Method: HEPG2 liver cells were treated with 0.75 mM of palmitate, a saturated fatty acid, for 17 hours to induce insulin resistance, and the effects of PERK inhibition were assessed by monitoring Foxo1 target gene expression. The Foxo1 target genes are pyruvate dehydrogenase lipoamide kinase isozyme 4 gene (PDK4; encoding a protein that inhibits the pyruvate dehydrogenase complex) and phosphoenolpyruvate carboxykinase 1 (PCK1; encoding […]).
The results are shown in FIG. 12A, where the data was normalized to Kinesin mRNA levels and to the level of the rp132 control mRNAs.
The palmitate treated cells were further treated by inhibiting PERK kinase inhibitor 5-Bromo-N4-2-pyridinyl-N2-[3-(1,2,3,6-tetrahydro-4-pyridinyl)-1H-indol-5-yl]-2,4-pyrimidinediamine.
The results are shown in FIG. 12B, where the data was normalized to Kinesin mRNA levels and to the level of the rp132 control mRNAs. It can be seen that PERK inhibition decreased the expression of the Foxo1 targets, PDK4 and PCK1.

Compound	Foxo1 activity (expression of endogenous Foxo1 targets) [1]	levels of rp123 and mActin (not Foxo1 targets) [2]	levels of expression of the Foxo1 targets PDK4 and PCK1 ([2]; quantitative real time PCR)
O=c1cc(N2CCOCC2)oc2c(-c3ccccc3)cccc12 [LY294002, reference compound]	generally increased	–	–
CCCCCCCCCCCCCCCC(=O)O [palmitate, reference compound]	–	not substantially altered	substantially higher
